Experimental data from PubChem BioAssay AID504466 (National Center for Advancing Translational Sciences (NCATS), 2011).
This is a selection; strong and weak results do not stand in their true shares. Results filed as inconclusive are left out. Active and inactive are the calls of the source. Calls come from the whole dose curve; as a rule, active = well fitted activation curve with a large enough effect; inconclusive = small, poorly fitted or top-dose-only effect; inactive = no such curve, though single readings can be large or run the other way.

Experiment: qHTS screen for small molecules that induce genotoxicity in human embryonic kidney (HEK293T) cells expressing luciferase-tagged ELG1; note: nearly all actives have a fitted effect of over 60% in size
Details: HEK293T ELG1-luciferase reporter, luminescence, 16 h
Description: NIH Molecular Libraries Probe Production Network [MLPCN] NIH Chemical Genomics Center [NCGC] MLPCN Grant: 1 R03 MH092164-01 Assay Provider: Kyungjae Myung, NHGRI, NIH Keywords: MLPCN, qHTS, NCGC, genotoxicity, cancer Assay Overview: Cancer cells divide rapidly compared to normal cells in the body. During cell division, cancer cells need to duplicate their genome by DNA replication. The failure of genome duplication leads to cancer cells' death. Therefore, inhibitors of DNA replication could specifically kill cancer cells. Based on this concept, many chemotherapeutic agents were developed and have been used to treat cancer patients. However, there are a limited number of agents available in the clinical setting, and some of those that do exist have low efficacy and severe side effects. […] With this in mind, we developed a quantitative high-throughput ELG1-luciferase reporter gene assay. […]
Assay Protocol Summary: For genotoxicity screening, 2,000 cells in 5 uL/well were dispensed into white, solid-bottom 1536-well plates using a solenoid-based dispenser. […] 5 ul ONE-Glo (Promega) was then added to each plate and following a 30 min incubation at room temperature, luciferase activity was quantified on a ViewLux CCD-based plate reader.
Potency is the fitted concentration of half-maximal effect.

Structure (SMILES) | Potency
Cc1cc(=O)oc2cc(OCc3ccccc3)ccc12 | active: 14.6 µM
